# Library screen at single concentrations

The chains behind the UniProt entries cited, without tags or fusion partners.
UniProt P9WFT3, whole entry: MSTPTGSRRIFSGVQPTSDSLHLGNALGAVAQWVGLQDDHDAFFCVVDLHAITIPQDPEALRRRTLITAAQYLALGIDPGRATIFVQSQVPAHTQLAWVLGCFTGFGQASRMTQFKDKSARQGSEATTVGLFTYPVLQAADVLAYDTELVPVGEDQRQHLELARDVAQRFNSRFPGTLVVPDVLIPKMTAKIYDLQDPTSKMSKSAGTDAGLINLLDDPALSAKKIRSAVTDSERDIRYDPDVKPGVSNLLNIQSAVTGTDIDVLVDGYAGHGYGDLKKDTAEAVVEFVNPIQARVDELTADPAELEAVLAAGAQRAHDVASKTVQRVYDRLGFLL
UniProt P9WNZ1, whole entry: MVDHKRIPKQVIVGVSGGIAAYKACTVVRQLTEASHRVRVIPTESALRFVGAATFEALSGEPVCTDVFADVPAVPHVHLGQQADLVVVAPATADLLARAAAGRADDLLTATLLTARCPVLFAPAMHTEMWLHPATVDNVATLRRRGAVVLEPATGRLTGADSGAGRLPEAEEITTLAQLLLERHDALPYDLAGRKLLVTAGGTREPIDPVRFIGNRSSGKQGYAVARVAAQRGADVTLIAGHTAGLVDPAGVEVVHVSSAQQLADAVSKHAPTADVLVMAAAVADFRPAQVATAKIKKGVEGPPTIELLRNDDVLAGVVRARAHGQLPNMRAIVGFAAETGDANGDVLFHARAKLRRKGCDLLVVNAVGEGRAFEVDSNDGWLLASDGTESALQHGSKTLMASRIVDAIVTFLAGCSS

Results are given as percent effect.
The controls that fix the scale are not given in the record; negative values are as filed.
The compounds are a random part of those screened.
Two or more numbers in one place are separate tests of the same structure; such repeats can differ widely.
A dash means the value is not listed here; it may have been measured.

Leishmania in macrophages: 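Cell assay of Leishmania donovani living inside macrophages; the read-out is not stated. Tested at 30 µM. Direction is inferred from retests: higher values go with stronger inhibition. Of about 69,000 compounds tested this way, about 1,000 (1.5%) reached 50% or more in at least one test.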
MtTrpRS: 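Enzyme assay of tryptophanyl-tRNA synthetase; the read-out is not stated. Target: Tryptophan-tRNA ligase, Mycobacterium tuberculosis (UniProt P9WFT3). Tested at 10 µM. Higher most likely means stronger inhibition; the record gives no direction and few retests gave an IC50. Of about 65,000 compounds tested this way, about 64 (0.098%) reached 50% or more in at least one test.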
Toxoplasma: 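Assay of Toxoplasma gondii numbers, read through their beta-galactosidase reporter with a colour substrate. Compounds at 10 µM. Higher reads as fewer parasites (inferred from which compounds were picked for retests). Size under these conditions: about 67,000 compounds, about 260 of them at 50% or above in at least one test.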
CoaBC: 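Enzyme assay of CoaBC with a phosphate dye (Biomol Green) read at 650 nm. Target: Coenzyme A biosynthesis protein CoaBC, Mycobacterium tuberculosis (UniProt P9WNZ1). Concentration: 30 µM. Direction is inferred from only a few compounds that gave an IC50; most scored high, so higher reads as stronger inhibition. Most strong results did not repeat in a second test. About 67,000 compounds were tested under these conditions; 0.06% (about 40) showed 50% or more at least once.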

SMILES: COC(=O)c1c(Cl)c(C2CC2)nc2onc(C)c12
Leishmania in macrophages: 1.531
MtTrpRS: 0.9709
Toxoplasma: 15.78
CoaBC: -2.651

SMILES: COCCn1ccnc1CN1CCc2[nH]cnc2C1c1cccc(O)c1 (stereo not drawn)
Leishmania in macrophages: -12.6
MtTrpRS: 3.537
CoaBC: 0.6075

SMILES: Cc1ccc(C(=O)N2CCC3(CCN(c4ccsc4)C3=O)C2)cn1.O=C(O)C(F)(F)F (stereo not drawn)
Leishmania in macrophages: 30.55
Toxoplasma: 8.62

SMILES: CCCOc1ccc(C(=O)N2CC[C@H]3CC[C@@H](C2)N3)cc1Cl
MtTrpRS: -7.637

SMILES: Br.Cc1cc(C)c(N(CC(O)CNCc2ccccc2)S(C)(=O)=O)c(C)c1 (stereo not drawn)
Leishmania in macrophages: 45.74
Toxoplasma: -11.81

SMILES: COC(=O)c1cccc(-c2nc(CC3CCN(C)CC3)no2)c1
Leishmania in macrophages: 10.91
MtTrpRS: -2.611
Toxoplasma: 1.834
CoaBC: -22.31

SMILES: O=C(NCc1cncc2c1CCN(Cc1cccs1)C2)C1CC1
MtTrpRS: -4.229
CoaBC: 18.91

SMILES: CCN(CC)CC1CN(CCc2ccccc2)Cc2nccn2C1 (stereo not drawn)
MtTrpRS: 1.562
CoaBC: -16.13

SMILES: Cc1cn2c(n1)C(CNCc1cnn3ccccc13)CCC2 (stereo not drawn)
Leishmania in macrophages: -1.783
MtTrpRS: -1.888
Toxoplasma: -1.725
CoaBC: 0.6143

SMILES: [H][C@@]12COC[C@]1([H])[C@H](OCc1csc(C)n1)CN2Cc1ccc(F)cc1
Leishmania in macrophages: 31.66
Toxoplasma: 3.698

SMILES: Cc1cnc(N)c(C(=O)C2CCN(C(=O)C3CCC3)CC2)c1
Leishmania in macrophages: -11.07
Toxoplasma: 1.464
CoaBC: 0.8674

SMILES: CN1CC[C@]2(CN(CC3CC3)C[C@H]2c2ccccc2)C1=O
Leishmania in macrophages: 17.74
Toxoplasma: -1.475
CoaBC: 2.061

SMILES: Cc1cc(C(=O)N2CCCC2c2noc(C(C)C)n2)c(C)o1 (stereo not drawn)
Leishmania in macrophages: 8.784
MtTrpRS: -1.258
Toxoplasma: -6.968
CoaBC: 2.366

SMILES: CC(C)NC(=O)c1sc2ccccc2c1[C@H]1CC[C@H](CN)CC1.Cl
Leishmania in macrophages: 40.33

SMILES: Cn1ccnc1CN1CCN(Cc2ccc(C#N)cc2)CC1
Leishmania in macrophages: 34.32
MtTrpRS: 3.193
Toxoplasma: -0.2944
CoaBC: -1.121

SMILES: CC(C)CN1C[C@@H]2CN(C(=O)[C@H]3CCCO3)C[C@@H]2C1=O
MtTrpRS: 0.5344
CoaBC: -0.2418

SMILES: COc1cccc(-c2cnc(CNC(C)(C)c3nc(C)cs3)o2)c1
Leishmania in macrophages: 2.49
MtTrpRS: -2.166
Toxoplasma: 0.7491
CoaBC: -10.45

SMILES: N[C@H]1CN(C(=O)c2ccc(CO)cc2)C[C@@H]1C1CC1
Leishmania in macrophages: 16.81
MtTrpRS: -2.384
Toxoplasma: -4.232
CoaBC: -1.829

SMILES: [H][C@]12C[C@H](C(=O)NC)N(S(C)(=O)=O)[C@@]1([H])CN(C(=O)c1ccsc1)C2
Leishmania in macrophages: 0.6589
Toxoplasma: 1.766

SMILES: CNc1nc(CNC(=O)Nc2cccc(-c3ncc(C)o3)c2)cs1
Leishmania in macrophages: -10.33
MtTrpRS: 22.16
Toxoplasma: 11.22
CoaBC: 6.102

SMILES: CN(CC(=O)NCC1CCCO1)Cc1nc2c(s1)CCCC2 (stereo not drawn)
Leishmania in macrophages: -21.41
MtTrpRS: 4.068
Toxoplasma: -19.22
CoaBC: -4.684

SMILES: N#Cc1ccc(NCc2cccc(OCC3CCCO3)c2)nc1 (stereo not drawn)
Leishmania in macrophages: 10.18
MtTrpRS: 1.834
Toxoplasma: -17.65
CoaBC: -2.179

SMILES: [H][C@@]12CS(=O)(=O)C[C@]1([H])N(C(=O)Nc1ccccc1Cl)CCN2CCC
Leishmania in macrophages: 6.11
Toxoplasma: 14.65

SMILES: CN(C)C(=O)N1CC2(CCN(CC3CC3)CC2)c2cc(F)ccc21.O=C(O)C(F)(F)F
Leishmania in macrophages: 4.033
Toxoplasma: -2.305

SMILES: CCCOc1ccc(C(=O)N[C@@H]2CCNC[C@H]2O)cc1Cl
Leishmania in macrophages: -0.3472
MtTrpRS: -0.6595
Toxoplasma: 8.979
CoaBC: -34.74

SMILES: CN1CCC2(CCN(CC3CCOCC3)CC2)C1=O.O=C(O)C(F)(F)F
Leishmania in macrophages: 15.69 & -0.3526
Toxoplasma: -1.008

SMILES: O=C(c1ccc2ccc(N3CCN(CC4CC4)CC3)n2c1)N1CCCO1
MtTrpRS: -0.3666
CoaBC: 6.667

SMILES: O=C(c1cccc2c1OCCO2)N1CCCC(n2ccnc2)C1 (stereo not drawn)
Leishmania in macrophages: -4.699
MtTrpRS: 0.7862
Toxoplasma: -17.64
CoaBC: -1.064

The first 2 entries again:

| SMILES | Leishmania in macrophages | MtTrpRS | Toxoplasma | CoaBC |
|---|---|---|---|---|
| `COC(=O)c1c(Cl)c(C2CC2)nc2onc(C)c12` | 1.531 | 0.9709 | 15.78 | -2.651 |
| `COCCn1ccnc1CN1CCc2[nH]cnc2C1c1cccc(O)c1` (stereo not drawn) | -12.6 | 3.537 | - | 0.6075 |

Measurements from “University of Dundee, Small-Polar-MMV Screening Library” (2021), ChEMBL document CHEMBL3988442.